The text below walks through data of article PMC5762833.

The chains behind the UniProt entries cited, without tags or fusion partners. Where a name states a change or a piece, a line headed by the entry shows the natural chain unless it says otherwise.
UniProt P24557: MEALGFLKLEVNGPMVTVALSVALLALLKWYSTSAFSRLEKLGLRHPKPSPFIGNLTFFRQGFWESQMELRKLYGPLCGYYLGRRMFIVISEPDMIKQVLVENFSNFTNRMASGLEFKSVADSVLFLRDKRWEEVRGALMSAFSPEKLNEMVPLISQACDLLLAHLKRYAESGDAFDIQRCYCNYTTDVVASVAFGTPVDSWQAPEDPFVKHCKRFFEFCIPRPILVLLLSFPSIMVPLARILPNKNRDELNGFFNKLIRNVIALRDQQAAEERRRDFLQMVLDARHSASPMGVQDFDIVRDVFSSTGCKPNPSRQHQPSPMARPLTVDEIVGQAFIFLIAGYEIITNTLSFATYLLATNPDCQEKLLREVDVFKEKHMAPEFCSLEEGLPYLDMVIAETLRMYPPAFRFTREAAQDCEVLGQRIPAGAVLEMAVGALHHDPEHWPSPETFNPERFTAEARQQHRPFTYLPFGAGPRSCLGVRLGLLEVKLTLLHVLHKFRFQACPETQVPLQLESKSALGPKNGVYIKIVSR
UniProt P16435: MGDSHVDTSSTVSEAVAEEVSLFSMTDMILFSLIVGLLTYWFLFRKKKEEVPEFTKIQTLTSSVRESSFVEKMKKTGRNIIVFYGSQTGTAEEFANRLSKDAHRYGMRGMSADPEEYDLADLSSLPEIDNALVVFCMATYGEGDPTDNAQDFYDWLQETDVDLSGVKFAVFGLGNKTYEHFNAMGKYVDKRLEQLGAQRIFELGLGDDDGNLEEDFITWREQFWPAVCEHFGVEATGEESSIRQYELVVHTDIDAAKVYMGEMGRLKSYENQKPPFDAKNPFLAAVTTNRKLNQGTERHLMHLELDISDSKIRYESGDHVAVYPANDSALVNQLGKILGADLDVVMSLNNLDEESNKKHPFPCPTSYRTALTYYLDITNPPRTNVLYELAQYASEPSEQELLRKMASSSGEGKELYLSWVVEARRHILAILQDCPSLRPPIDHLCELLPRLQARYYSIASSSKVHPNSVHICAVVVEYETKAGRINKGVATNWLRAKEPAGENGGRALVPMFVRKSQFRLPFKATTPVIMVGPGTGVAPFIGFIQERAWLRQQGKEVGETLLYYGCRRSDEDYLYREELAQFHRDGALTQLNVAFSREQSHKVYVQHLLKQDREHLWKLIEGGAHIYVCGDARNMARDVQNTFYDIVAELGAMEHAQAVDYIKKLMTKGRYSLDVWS
UniProt Q13485: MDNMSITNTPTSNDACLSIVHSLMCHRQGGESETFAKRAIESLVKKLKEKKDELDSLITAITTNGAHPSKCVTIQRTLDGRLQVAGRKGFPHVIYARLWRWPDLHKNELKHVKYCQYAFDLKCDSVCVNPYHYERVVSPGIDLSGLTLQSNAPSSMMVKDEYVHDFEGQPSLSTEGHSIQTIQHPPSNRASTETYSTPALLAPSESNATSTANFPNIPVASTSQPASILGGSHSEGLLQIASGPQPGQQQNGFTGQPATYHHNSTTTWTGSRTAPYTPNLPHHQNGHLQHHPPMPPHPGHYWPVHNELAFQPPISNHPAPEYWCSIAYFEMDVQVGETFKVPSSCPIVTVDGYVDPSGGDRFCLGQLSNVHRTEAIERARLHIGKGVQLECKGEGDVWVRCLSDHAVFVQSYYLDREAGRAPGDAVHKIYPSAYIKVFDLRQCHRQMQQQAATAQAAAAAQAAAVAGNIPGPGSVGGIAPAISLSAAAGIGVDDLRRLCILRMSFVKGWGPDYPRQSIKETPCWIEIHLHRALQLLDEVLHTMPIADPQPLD
UniProt P20815: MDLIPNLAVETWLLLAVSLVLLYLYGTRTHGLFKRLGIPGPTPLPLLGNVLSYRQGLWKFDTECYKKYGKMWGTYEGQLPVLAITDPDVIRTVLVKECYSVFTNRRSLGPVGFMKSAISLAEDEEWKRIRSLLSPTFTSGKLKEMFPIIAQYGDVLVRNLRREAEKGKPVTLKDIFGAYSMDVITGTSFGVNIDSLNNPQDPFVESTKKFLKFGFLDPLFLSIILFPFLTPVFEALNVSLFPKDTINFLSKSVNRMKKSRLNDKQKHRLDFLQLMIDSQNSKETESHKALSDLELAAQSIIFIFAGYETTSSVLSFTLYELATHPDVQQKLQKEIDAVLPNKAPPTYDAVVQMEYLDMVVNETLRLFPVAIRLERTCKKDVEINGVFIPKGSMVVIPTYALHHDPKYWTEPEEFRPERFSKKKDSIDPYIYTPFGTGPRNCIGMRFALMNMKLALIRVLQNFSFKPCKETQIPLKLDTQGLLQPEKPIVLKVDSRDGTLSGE
UniProt P33261: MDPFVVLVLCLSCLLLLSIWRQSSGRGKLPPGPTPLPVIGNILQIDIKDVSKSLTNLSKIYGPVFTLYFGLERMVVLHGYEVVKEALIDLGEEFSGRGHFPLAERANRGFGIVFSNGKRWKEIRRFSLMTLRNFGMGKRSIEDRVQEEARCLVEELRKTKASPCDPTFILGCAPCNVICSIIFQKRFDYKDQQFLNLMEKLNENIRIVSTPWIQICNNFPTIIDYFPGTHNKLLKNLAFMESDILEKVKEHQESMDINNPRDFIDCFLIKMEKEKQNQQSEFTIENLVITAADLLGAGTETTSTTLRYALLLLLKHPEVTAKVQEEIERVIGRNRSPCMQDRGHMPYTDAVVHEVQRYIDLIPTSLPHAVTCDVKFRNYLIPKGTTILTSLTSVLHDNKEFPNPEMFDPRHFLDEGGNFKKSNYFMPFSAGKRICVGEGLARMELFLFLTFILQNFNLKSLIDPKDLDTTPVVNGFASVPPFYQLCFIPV
UniProt P00167: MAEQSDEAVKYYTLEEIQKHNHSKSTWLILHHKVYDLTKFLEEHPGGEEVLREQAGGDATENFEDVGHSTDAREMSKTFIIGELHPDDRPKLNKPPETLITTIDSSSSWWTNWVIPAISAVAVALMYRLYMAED
UniProt P08684: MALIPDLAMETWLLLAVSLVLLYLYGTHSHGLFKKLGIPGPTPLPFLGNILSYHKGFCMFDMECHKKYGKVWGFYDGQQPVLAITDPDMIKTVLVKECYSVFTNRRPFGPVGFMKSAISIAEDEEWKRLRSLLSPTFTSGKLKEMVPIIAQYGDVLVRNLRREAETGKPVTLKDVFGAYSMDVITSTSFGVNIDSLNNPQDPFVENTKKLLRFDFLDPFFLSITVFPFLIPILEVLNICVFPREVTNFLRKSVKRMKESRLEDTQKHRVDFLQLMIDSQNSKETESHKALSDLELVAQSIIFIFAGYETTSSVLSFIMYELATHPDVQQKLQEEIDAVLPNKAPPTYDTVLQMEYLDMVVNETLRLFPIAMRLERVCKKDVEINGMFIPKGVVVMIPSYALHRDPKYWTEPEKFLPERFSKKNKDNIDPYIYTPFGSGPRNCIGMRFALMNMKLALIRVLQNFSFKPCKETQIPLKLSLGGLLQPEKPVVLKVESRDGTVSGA

Results are given in words; binding and its absence hold for the method and conditions named.

The assay deals with Human thromboxane synthase (TBXAS1) (human) (UniProt P24557). In words: condition: micromolar concentrations (50 nM to 5 μM injected); SPR; Biacore 3000; TBXAS1 amine-coupled to a CM5 chip (about 7,500 RU); analytes 50 nM to 5 μM injected for 10 min at 5 μL/min; control channel without protein; both purified. (In general: In SPR one partner is held on a chip, and binding of the other changes the refractive index at the surface.)
For “NADPH-cytochrome-P450-reductase (CPR) (from UniProt P16435) (enzyme)”, the binding result was “no binding”.

SMAD4 (from UniProt Q13485 1-552): the binding result is on record as “no binding”.

For the substance “cyclic hydrocarbon hydroxylase (CYP3A5) (from UniProt P20815 1-502) (enzyme)”, the binding entry is “no binding”.

As for “limonene 6-monooxygenase (CYP2C19) (from UniProt P33261 1-490) (enzyme)”, the binding result is recorded as “no binding”.

As to “microsomal cytochrome b5 (CYB5A) (from UniProt P00167 1-134)”, the binding result is on record as “no binding”.

Take “taurochenodeoxycholate-6α-monooxygenase (CYP3A4) (from UniProt P08684) (enzyme)”: the binding result is listed as “no binding”.
